Source: publication PMC8630191
These are yes or no findings as the source states them, for the method shown. Binding seen in cells or lysates may run through a third protein. These calls come from enrichment with a bait or labelling near it, and not all partners need be listed. Sequences can lack the tags named with a protein.

T1: 3xFLAG-tagged PP6c, wild type (human) (UniProt O00743)
T1 sequence: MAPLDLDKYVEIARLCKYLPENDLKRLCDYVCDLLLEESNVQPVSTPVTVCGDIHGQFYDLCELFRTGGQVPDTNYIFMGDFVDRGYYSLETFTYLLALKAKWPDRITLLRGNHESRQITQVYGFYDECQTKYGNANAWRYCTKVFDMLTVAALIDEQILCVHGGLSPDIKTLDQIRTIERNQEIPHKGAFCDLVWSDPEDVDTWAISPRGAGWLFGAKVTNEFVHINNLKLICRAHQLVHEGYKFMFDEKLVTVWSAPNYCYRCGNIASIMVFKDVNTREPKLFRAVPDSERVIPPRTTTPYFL

T2: 3xFLAG-tagged PP6c ΔL mutant (Leu 305 deleted) (human) (UniProt O00743)
T2 sequence: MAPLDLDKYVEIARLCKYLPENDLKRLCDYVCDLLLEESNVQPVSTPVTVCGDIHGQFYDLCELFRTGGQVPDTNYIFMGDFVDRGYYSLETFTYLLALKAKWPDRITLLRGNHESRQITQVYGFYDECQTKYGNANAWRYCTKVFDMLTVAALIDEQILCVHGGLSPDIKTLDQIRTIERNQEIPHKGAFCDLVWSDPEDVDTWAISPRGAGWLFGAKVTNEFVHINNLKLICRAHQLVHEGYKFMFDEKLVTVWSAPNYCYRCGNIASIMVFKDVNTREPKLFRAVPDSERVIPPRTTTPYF


Key:
[1] = target: T1, 3xFLAG-tagged PP6c, wild type (human); assay: affinity purification with mass spectrometry; 3xFLAG-tagged catalytic subunit (WT or ΔL) transfected in FreeStyle 293F cells; FLAG M2 affinity gel, 3 h at 4 °C; lysis and wash buffer 50 mM Tris pH 7.5, 500 mM NaCl, 0.5% Triton X-100; eluted with 3XFLAG peptide; label-free quantitative LC-MS/MS on unique peptides, three replicates
[2] = target: T2, 3xFLAG-tagged PP6c ΔL mutant (Leu 305 deleted) (human); assay: as above

Binder	binding [1]	binding [2]
ANKRD44, Ankyrin repeat subunit of PP6 (protein, UniProt Q8N8A2 1-993) MAVLKLTDQPPLVQAIFSGDPEEIRMLIHKTEDVNTLDSEKRTPLHVAAFLGDAEIIELLILSGARVNAKDNMWLTPLHRAVASRSEEAVQVLIKHSADVNARDKNWQTPLHVAAANKAVKCAEVIIPLLSSVNVSDRGGRTALHHAALNGHVEMVNLLLAKGANINAFDKKDRRALHWAAYMGHLDVVALLINHGAEVTCKDKKGYTPLHAAASNGQINVVKHLLNLGVEIDEINVYGNTALHIACYNGQDAVVNELIDYGANVNQPNNNGFTPLHFAAASTHGALCLELLVNNGADVNIQSKDGKSPLHMTAVHGRFTRSQTLIQNGGEIDCVDKDGNTPLHVAARYGHELLINTLITSGADTAKCGIHSMFPLHLAALNAHSDCCRKLLSSGFEIDTPDKFGRTCLHAAAAGGNVECIKLLQSSGADFHKKDKCGRTPLHYAAANCHFHCIETLVTTGANVNETDDWGRTALHYAAASDMDRNKTILGNAHDNSEELERARELKEKEATLCLEFLLQNDANPSIRDKEGYNSIHYAAAYGHRQCLELLLERTNSGFEESDSGATKSPLHLAAYNGHHQALEVLLQSLVDLDIRDEKGRTALDLAAFKGHTECVEALINQGASIFVKDNVTKRTPLHASVINGHTLCLRLLLEIADNPEAVDVKDAKGQTPLMLAVAYGHIDAVSLLLEKEANVDTVDILGCTALHRGIMTGHEECVQMLLEQEVSILCKDSRGRTPLHYAAARGHATWLSELLQMALSEEDCCFKDNQGYTPLHWACYNGNENCIEVLLEQKCFRKFIGNPFTPLHCAIINDHGNCASLLLGAIDSSIVSCRDDKGRTPLHAAAFADHVECLQLLLRHSAPVNAVDNSGKTALMMAAENGQAGAVDILVNSAQADLTVKDKDLNTPLHLACSKGHEKCALLILDKIQDESLINEKNNALQTPLHVAARNGLKVVVEELLAKGACVLAVDENASRSNGPRSTPGTAVQKEE	binds	binds
ANKRD28, Ankyrin repeat subunit of PP6 (protein, UniProt O15084 1-1053) MAFLKLRDQPSLVQAIFNGDPDEVRALIFKKEDVNFQDNEKRTPLHAAAYLGDAEIIELLILSGARVNAKDSKWLTPLHRAVASCSEEAVQVLLKHSADVNARDKNWQTPLHIAAANKAVKCAEALVPLLSNVNVSDRAGRTALHHAAFSGHGEMVKLLLSRGANINAFDKKDRRAIHWAAYMGHIEVVKLLVSHGAEVTCKDKKSYTPLHAAASSGMISVVKYLLDLGVDMNEPNAYGNTPLHVACYNGQDVVVNELIDCGAIVNQKNEKGFTPLHFAAASTHGALCLELLVGNGADVNMKSKDGKTPLHMTALHGRFSRSQTIIQSGAVIDCEDKNGNTPLHIAARYGHELLINTLITSGADTAKRGIHGMFPLHLAALSGFSDCCRKLLSSGFDIDTPDDFGRTCLHAAAAGGNLECLNLLLNTGADFNKKDKFGRSPLHYAAANCNYQCLFALVGSGASVNDLDERGCTPLHYAATSDTDGKCLEYLLRNDANPGIRDKQGYNAVHYSAAYGHRLCLQLIASETPLDVLMETSGTDMLSDSDNRATISPLHLAAYHGHHQALEVLVQSLLDLDVRNSSGRTPLDLAAFKGHVECVDVLINQGASILVKDYILKRTPIHAAATNGHSECLRLLIGNAEPQNAVDIQDGNGQTPLMLSVLNGHTDCVYSLLNKGANVDAKDKWGRTALHRGAVTGHEECVDALLQHGAKCLLRDSRGRTPIHLSAACGHIGVLGALLQSAASMDANPATADNHGYTALHWACYNGHETCVELLLEQEVFQKTEGNAFSPLHCAVINDNEGAAEMLIDTLGASIVNATDSKGRTPLHAAAFTDHVECLQLLLSHNAQVNSVDSTGKTPLMMAAENGQTNTVEMLVSSASAELTLQDNSKNTALHLACSKGHETSALLILEKITDRNLINATNAALQTPLHVAARNGLTMVVQELLGKGASVLAVDENGYTPALACAPNKDVADCLALILATMMPVSSSSPLSSLTFNAINRYTNTSKTVSFEALPIMRNEPSSYCSFNNIGGEQEYLYTDVDELNDSDSETY	binds	binds
SAPS1, Sit4-associated protein subunit of PP6 (protein, UniProt Q9UPN7 1-881) MFWKFDLHTSSHLDTLLEREDLSLPELLDEEDVLQECKVVNRKLLDFLLQPPHLQAMVAWVTQEPPDSGEERLRYKYPSVACEILTSDVPQINDALGADESLLNRLYGFLQSTGSLNPLLASFFSKVMGILINRKTDQLVSFLRKKDDFVDLLLQHIGTSAIMDLLLRLLTCVERPQLRQDVVNWLNEEKIVQRLIEQIHPSKDENQHSNASQSLCDIIRLSREQMIQVQDSPEPDQLLATLEKQETIEQLLSNMFEGEQSQSVIVSGIQVLLTLLEPRRPRSESVTVNSFFSSVDGQLELLAQGALESTVSSVGALHALRPRLSCFHQLLLEPPKLEPLQMTWGMLAPPLGNTRLHVVKLLASALSANDAALTHELLALDVPNTMLDLFFHYVFNNFLHAQVEGCVSTMLSLGPPPDSSPETPIQNPVVKHLLQQCRLVERILTSWEENDRVQCAGGPRKGYMGHLTRVAGALVQNTEKGPNAEQLRQLLKELPSEQQEQWEAFVSGPLAETNKKNMVDLVNTHHLHSSSDDEDDRLKEFNFPEEAVLQQAFMDFQMQRMTSAFIDHFGFNDEEFGEQEESVNAPFDKTANITFSLNADDENPNANLLEICYKDRIQQFDDDEEEEDEEEAQGSGESDGEDGAWQGSQLARGARLGQPPGVRSGGSTDSEDEEEEDEEEEEDEEGIGCAARGGATPLSYPSPGPQPPGPSWTATFDPVPTDAPTSPRVSGEEELHTGPPAPQGPLSVPQGLPTQSLASPPARDALQLRSQDPTPPSAPQEATEGSKVTEPSAPCQALVSIGDLQATFHGIRSAPSSSDSATRDPSTSVPASGAHQPPQTTEGEKSPEPLGLPQSQSAQALTPPPIPNGSAPEGPASPGSQ	binds	binds

Next, values leading:

binding [1]	binding [2]	Binder
binds	binds	SAPS2, Sit4-associated protein subunit of PP6 (protein, UniProt O75170 1-966) MFWKFDLNTTSHVDKLLDKEHVTLQELMDEDDILQECKAQNQKLLDFLCRQQCMEELVSLITQDPPLDMEEKVRFKYPNTACELLTCDVPQISDRLGGDESLLSLLYDFLDHEPPLNPLLASFFSKTIGNLIARKTEQVITFLKKKDKFISLVLKHIGTSALMDLLLRLVSCVEPAGLRQDVLHWLNEEKVIQRLVELIHPSQDEDRQSNASQTLCDIVRLGRDQGSQLQEALEPDPLLTALESQDCVEQLLKNMFDGDRTESCLVSGTQVLLTLLETRRVGTEGLVDSFSQGLERSYAVSSSVLHGIEPRLKDFHQLLLNPPKKKAILTTIGVLEEPLGNARLHGARLMAALLHTNTPSINQELCRLNTMDLLLDLFFKYTWNNFLHFQVELCIAAILSHAAREERTEASGSESRVEPPHENGNRSLETPQPAASLPDNTMVTHLFQKCCLVQRILEAWEANDHTQAAGGMRRGNMGHLTRIANAVVQNLERGPVQTHISEVIRGLPADCRGRWESFVEETLTETNRRNTVDLVSTHHLHSSSEDEDIEGAFPNELSLQQAFSDYQIQQMTANFVDQFGFNDEEFADQDDNINAPFDRIAEINFNIDADEDSPSAALFEACCSDRIQPFDDDEDEDIWEDSDTRCAARVMARPRFGAPHASESCSKNGPERGGQDGKASLEAHRDAPGAGAPPAPGKKEAPPVEGDSEGAMWTAVFDEPANSTPTAPGVVRDVGSSVWAAGTSAPEEKGWAKFTDFQPFCCSESGPRCSSPVDTECSHAEGSRSQGPEKASQASYFAVSPASPCAWNVCVTRKAPLLASDSSSSGGSHSEDGDQKAASAMDAVSRGPGREAPPLPTVARTEEAVGRVGCADSRLLSPACPAPKEVTAAPAVAVPPEATVAITTALSKAGPAIPTPAVSSALAVAVPLGPIMAVTAAPAMVATLGTVTKDGKTDAPPEGAALNGPV
binds	binds	SAPS3, Sit4-associated protein subunit of PP6 (protein, UniProt Q5H9R7 1-873) MFWKFDLHSSSHIDTLLEREDVTLKELMDEEDVLQECKAQNRKLIEFLLKAECLEDLVSFIIEEPPQDMDEKIRYKYPNISCELLTSDVSQMNDRLGEDESLLMKLYSFLLNDSPLNPLLASFFSKVLSILISRKPEQIVDFLKKKHDFVDLIIKHIGTSAIMDLLLRLLTCIEPPQPRQDVLNWLNEEKIIQRLVEIVHPSQEEDRHSNASQSLCEIVRLSRDQMLQIQNSTEPDPLLATLEKQEIIEQLLSNIFHKEKNESAIVSAIQILLTLLETRRPTFEGHIEICPPGMSHSACSVNKSVLEAIRGRLGSFHELLLEPPKKSVMKTTWGVLDPPVGNTRLNVIRLISSLLQTNTSSINGDLMELNSIGVILNMFFKYTWNNFLHTQVEICIALILASPFENTENATITDQDSTGDNLLLKHLFQKCQLIERILEAWEMNEKKQAEGGRRHGYMGHLTRIANCIVHSTDKGPNSALVQQLIKDLPDEVRERWETFCTSSLGETNKRNTVDLVTTCHIHSSSDDEIDFKETGFSQDSSLQQAFSDYQMQQMTSNFIDQFGFNDEKFADQDDIGNVSFDRVSDINFTLNTNESGNIALFEACCKERIQQFDDGGSDEEDIWEEKHIAFTPESQRRSSSGSTDSEESTDSEEEDGAKQDLFEPSSANTEDKMEVDLSEPPNWSANFDVPMETTHGAPLDSVGSDVWSTEEPMPTKETGWASFSEFTSSLSTKDSLRSNSPVEMETSTEPMDPLTPSAAALAVQPEAAGSVAMEASSDGEEDAESTDKVTETVMNGGMKETLSLTVDAKTETAVFKSEEGKLSTSQDAACKDAEECPETAEAKCAAPRPPSSSPEQRTGQPSAPGDTSVNGPV
